Some of these results come from one statement about several compounds together.
Target: T1, "wild-type" ALDH2 enzyme (Homo sapiens, UniProt P05091)
T1 sequence (P05091 18-517): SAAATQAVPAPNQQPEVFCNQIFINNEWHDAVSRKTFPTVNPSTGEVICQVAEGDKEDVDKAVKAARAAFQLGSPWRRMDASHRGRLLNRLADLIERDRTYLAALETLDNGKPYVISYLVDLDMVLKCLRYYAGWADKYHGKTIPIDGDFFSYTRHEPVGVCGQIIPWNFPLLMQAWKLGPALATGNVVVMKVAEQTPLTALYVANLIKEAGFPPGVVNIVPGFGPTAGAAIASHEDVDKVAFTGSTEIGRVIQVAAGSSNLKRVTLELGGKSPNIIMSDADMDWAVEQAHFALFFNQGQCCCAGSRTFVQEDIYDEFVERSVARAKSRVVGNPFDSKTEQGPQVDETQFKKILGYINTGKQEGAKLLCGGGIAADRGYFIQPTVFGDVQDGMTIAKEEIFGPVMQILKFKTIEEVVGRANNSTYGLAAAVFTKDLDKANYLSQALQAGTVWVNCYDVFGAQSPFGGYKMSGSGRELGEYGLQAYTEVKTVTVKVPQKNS
Test: Screen and inhibition assay with wild-type ALDH2 enzyme
Format: biochemical
Experimental: Compounds were screened using a method as depicted schematically in FIG. 2. Essentially, the reaction is carried out at 25° C. in 0.1 NaPPi buffer, pH 9.5, 2.4 mM NAD^+ and 10 mM acetaldehyde as the substrate. Enzymatic activity is measured by a reductive reaction of NAD^+ to NADH at 340 nm. Alternatively, the production of NADH can be coupled with another enzymatic reaction that consumes NADH and that provides for a detectable signal. An example of such an enzymatic reaction is a diaphorase-based reaction, which reduces resazurin to its […] fluorescent compound resorufin.
Compounds were screened, as described above, but using the “wild-type” ALDH2 enzyme. Of 63,000 compounds screened, six inhibitors were identified. Three of the compounds, referred to in FIGS. 8, 9, and 10 as #062923, #046072, and #032208, respectively, were assayed for their effect on ALDH2 enzymatic activity.

CCCCCCN1C(=O)C(=O)c2ccccc21 [Compound 16]
result of the initial screen of 63,000 compounds: identified in the initial screen as ALDH2 inhibitors
